# Only a part is listed here, and it is no random draw. At the low end of the ranking the order means little.
# Key:
# Experiment in all cases: DAPPL (digital affinity profiling via proximity ligation, sequencing)
# Settings in all cases: 10 mM Tris-HCl pH 7.5, 50 mM NaCl, 1 mM DTT, 4% glycerol, room temperature, 30 min; GST-TFs on glutathione beads, 16-mer random dsDNA library, 0.1% …; high values mean tight binding; double strand, one strand shown; scale: fold enrichment (6-mer frequency, TF over GST control)
# ELK1 = target: T1, ELK1 (UniProt P19419)
# T1 sequence: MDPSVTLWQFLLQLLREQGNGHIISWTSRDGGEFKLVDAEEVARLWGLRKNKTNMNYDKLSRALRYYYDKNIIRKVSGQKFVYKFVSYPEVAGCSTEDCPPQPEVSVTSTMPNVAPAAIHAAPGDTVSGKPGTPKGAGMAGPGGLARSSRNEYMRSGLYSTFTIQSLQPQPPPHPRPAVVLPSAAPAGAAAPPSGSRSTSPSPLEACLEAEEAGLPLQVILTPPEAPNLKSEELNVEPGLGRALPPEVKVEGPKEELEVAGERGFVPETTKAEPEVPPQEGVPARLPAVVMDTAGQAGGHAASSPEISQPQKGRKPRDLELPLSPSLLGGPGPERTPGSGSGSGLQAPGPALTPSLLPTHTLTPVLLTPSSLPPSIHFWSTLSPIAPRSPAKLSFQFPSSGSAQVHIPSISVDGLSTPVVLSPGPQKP
# ELK3 = target: T2, ELK3 (UniProt P41970)
# T2 sequence: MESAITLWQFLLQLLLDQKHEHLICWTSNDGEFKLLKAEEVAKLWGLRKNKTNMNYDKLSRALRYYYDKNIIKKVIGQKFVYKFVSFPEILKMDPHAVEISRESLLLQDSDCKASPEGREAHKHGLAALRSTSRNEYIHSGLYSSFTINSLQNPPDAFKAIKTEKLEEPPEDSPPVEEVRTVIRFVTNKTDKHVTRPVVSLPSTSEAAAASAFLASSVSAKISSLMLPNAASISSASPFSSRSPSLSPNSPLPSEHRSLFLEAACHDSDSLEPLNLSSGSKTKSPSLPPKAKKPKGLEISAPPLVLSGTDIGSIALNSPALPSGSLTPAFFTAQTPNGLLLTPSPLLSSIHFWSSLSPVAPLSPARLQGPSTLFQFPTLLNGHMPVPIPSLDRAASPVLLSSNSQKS
# SPIC = target: T3, SPIC (UniProt Q8N5J4)
# T3 sequence: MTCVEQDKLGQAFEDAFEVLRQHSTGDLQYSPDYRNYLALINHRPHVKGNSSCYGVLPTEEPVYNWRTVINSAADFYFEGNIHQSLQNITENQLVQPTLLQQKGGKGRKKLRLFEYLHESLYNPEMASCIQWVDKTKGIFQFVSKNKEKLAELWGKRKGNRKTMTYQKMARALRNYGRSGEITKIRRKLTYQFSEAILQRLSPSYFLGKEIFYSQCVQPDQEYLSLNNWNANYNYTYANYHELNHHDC
# ETS2 = target: T4, ETS2 (UniProt P15036)
# T4 sequence: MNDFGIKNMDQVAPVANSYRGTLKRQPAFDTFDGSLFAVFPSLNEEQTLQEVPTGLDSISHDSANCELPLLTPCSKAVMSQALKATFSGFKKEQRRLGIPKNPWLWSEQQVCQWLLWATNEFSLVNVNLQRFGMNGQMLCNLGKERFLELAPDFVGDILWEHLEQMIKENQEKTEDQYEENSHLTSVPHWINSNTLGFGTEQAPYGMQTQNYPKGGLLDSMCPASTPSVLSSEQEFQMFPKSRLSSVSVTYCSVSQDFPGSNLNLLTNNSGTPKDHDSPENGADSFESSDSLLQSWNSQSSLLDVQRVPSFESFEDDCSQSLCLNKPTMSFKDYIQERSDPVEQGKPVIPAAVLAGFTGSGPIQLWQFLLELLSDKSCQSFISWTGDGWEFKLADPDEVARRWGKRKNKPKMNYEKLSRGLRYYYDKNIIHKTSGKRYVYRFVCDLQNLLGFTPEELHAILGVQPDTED
# ETV3 = target: T5, ETV3 (UniProt P41162-2)
# T5 sequence: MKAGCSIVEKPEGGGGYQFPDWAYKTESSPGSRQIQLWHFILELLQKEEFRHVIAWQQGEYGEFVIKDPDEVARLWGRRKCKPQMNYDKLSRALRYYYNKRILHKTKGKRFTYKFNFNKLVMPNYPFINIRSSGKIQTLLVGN
Sequence,binding signal (ELK1),binding signal (ELK3),binding signal (SPIC),binding signal (ETS2),binding signal (ETV3)
AGAGTC,0.45,0.423,0.402,0.432,0.459
ACAACG,0.887,0.915,0.966,0.926,0.92
AGTTGG,0.467,0.538,0.5,0.406,0.495
GCTGTC,0.9,0.757,0.984,0.886,0.966
ACGGGC,0.819,0.843,0.731,0.794,0.803
CCGAGT,0.928,0.979,0.96,0.913,0.924
GTTGGA,0.489,0.495,0.421,0.484,0.471
GACTGG,0.611,0.668,0.564,0.64,0.603
CAGGAG,0.248,0.267,0.286,0.269,0.237
CGGCGA,0.737,0.698,0.658,0.777,0.757
CTGTGA,0.508,0.459,0.494,0.525,0.434
GAACGC,0.797,0.781,0.855,0.735,0.733
GGTGAT,0.788,0.879,0.818,0.788,0.814
GTGATT,0.75,0.727,0.767,0.727,0.69
GGGTGA,0.606,0.613,0.677,0.615,0.641
ATGTCG,0.643,0.57,0.641,0.616,0.656
GGGAGG,0.316,0.341,0.346,0.312,0.318
GGGGTA,0.711,0.753,0.729,0.77,0.694
GGTAGT,0.725,0.697,0.799,0.734,0.748
GTAGGA,0.565,0.542,0.572,0.633,0.642
GGGCAC,0.76,0.81,0.869,0.822,0.837
AGGCAA,0.731,0.723,0.82,0.727,0.722
GTATAG,0.904,0.961,0.921,0.785,0.948
GTAGTA,0.895,0.914,1,0.932,0.965
GCACAG,0.747,0.725,0.786,0.772,0.743

# Pulled one by one from the entries so far:
Sequence,binding signal (ELK1),binding signal (ELK3),binding signal (SPIC),binding signal (ETS2),binding signal (ETV3)
GCTGTC,0.9,0.757,0.984,0.886,0.966
GGGTGA,0.606,0.613,0.677,0.615,0.641
ATGTCG,0.643,0.57,0.641,0.616,0.656
GTAGTA,0.895,0.914,1,0.932,0.965

# Next results

Sequence,binding signal (ELK1),binding signal (ELK3),binding signal (SPIC),binding signal (ETS2),binding signal (ETV3)
CGGGGA,0.452,0.448,0.475,0.426,0.407
CGTGCC,0.761,0.663,0.942,0.796,0.748
GGGCTG,0.92,0.879,0.799,0.922,0.879
CGCGTG,0.731,0.617,0.748,0.671,0.676
AGGTAC,0.891,0.869,0.844,0.878,0.93
GGAGGG,0.327,0.309,0.346,0.324,0.305
CGTGGG,0.372,0.342,0.361,0.382,0.337
TCAGTC,0.603,0.692,0.638,0.597,0.58
CCAGAC,0.672,0.729,0.625,0.676,0.652
CAGACG,0.451,0.513,0.511,0.501,0.471
GACTGA,0.852,0.652,0.845,0.813,0.897
GTCCGA,0.79,0.694,0.869,0.91,0.843
GGGGAA,0.722,0.743,0.873,0.719,0.71
TACCGT,0.674,0.712,0.661,0.7,0.656
TGAGTA,0.467,0.444,0.428,0.426,0.432
CTGAGT,0.589,0.543,0.646,0.582,0.664
CTAGTC,0.759,0.725,0.839,0.8,0.709
CTGAGA,0.82,0.881,0.836,0.828,0.79
TGCGGG,0.813,0.776,0.801,0.79,0.795
AGTAGG,0.692,0.556,0.728,0.675,0.698
AGTCGC,0.541,0.557,0.567,0.514,0.477
CGTGAC,0.558,0.583,0.484,0.589,0.533
CTGGAG,0.638,0.663,0.749,0.633,0.658
GACACC,0.942,0.864,0.895,0.902,0.961
GCTGTG,0.609,0.699,0.72,0.792,0.703

# Source: article PMC7862700
